No constants are given. Whether binding was seen depends on the method and setting. Binding seen in cells or lysates may run through a third protein. Some entries that bind do so weakly or less than the wild type.
Target: T1, DJ1 (rat (endogenous in Sprague-Dawley rat liver)) (UniProt O88767)
T1 sequence: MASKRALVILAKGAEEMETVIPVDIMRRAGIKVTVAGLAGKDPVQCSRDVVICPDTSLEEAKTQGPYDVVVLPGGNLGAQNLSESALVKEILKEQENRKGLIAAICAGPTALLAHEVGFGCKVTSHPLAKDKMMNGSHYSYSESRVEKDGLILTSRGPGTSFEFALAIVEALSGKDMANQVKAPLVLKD
Assay: co-IP; tissue lysates incubated with anti-DJ1 antibody or normal mouse IgG at 4°C overnight, protein A/G agarose beads; immunoblot with monoclonal mouse anti-JNK1 antibody

The chains behind the UniProt entries cited, without tags or fusion partners.
UniProt P49185: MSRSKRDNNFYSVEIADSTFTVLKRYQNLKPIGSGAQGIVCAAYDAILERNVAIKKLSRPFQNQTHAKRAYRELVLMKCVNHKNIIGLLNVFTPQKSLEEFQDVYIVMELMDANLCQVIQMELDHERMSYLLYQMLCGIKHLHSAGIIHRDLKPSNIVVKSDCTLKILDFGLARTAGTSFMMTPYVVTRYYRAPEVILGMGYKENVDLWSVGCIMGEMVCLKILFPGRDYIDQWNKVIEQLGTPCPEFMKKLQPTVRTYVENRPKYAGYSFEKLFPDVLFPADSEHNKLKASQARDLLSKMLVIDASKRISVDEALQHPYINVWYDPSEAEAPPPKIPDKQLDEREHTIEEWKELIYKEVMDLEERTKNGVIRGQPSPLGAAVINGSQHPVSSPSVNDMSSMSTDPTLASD

binding: binds
Substance: JNK1 (from UniProt P49185 1-411)
